# Values joined by “and” are separate entries in the source; they are usually repeats but may differ in a detail not shown here. Equal entries are not always repeated. Among all 300,000 compounds or so, about 3,700 (1.2%) were called active. This list was built around the results that the source calls inconclusive (neither active nor inactive); the mix of calls is not that of the screen. Calls follow the shape of the full dose curve; tested in HEK293 cells. Potencies beside an inconclusive call are fits to weak or partial responses and may not hold up.
# Experiment: qHTS for Inhibitors of binding or entry into cells for Lassa Virus; also: nearly all actives have a fitted effect of over 50% in size
# Settings: Lassa virus pseudotype entry inhibition, cell reporter; activity change, negative = inhibition: at 37.9 µM (top of the series) unless noted
# % is scaled to controls: 0 for no effect and ±100 for the full control effect; potency is read from the fitted curve at half-maximal effect.
Compound,Potency,"activity change, negative = inhibition"
COc1ccc(-n2c(Cc3cccn3C)nnc2SCC(=O)Nc2cc(Cl)ccc2OC)cc1,"inconclusive: 29.1 µM [inhibitor, single point]",–
Cc1ccc2c(c1C)-c1c(ccc(C)c1C)C(=O)C2=O,"inconclusive: 3.16 µM [inhibitor, full curve]",–
CCOc1ccc(NC(=O)C2CCCN2C(=O)Oc2ccccc2)cc1 (centres undefined),–,inactive: 14.3%
CSc1ccc(-c2nnn(Cc3ccc(C)cc3)n2)cc1,–,inactive: -23.2%
CC(C)(C)S(=O)(=O)c1cnc(N2CCCCC2)nc1N,–,inactive: 11.6%
Cc1ccnc2ccc(-c3nc4ccccc4o3)cc12,–,inactive: 29.8%
O=C1NC(=O)/C(=C/c2cccc3ccccc23)S1,"inconclusive: 35.5 µM [activator, single point]",–
Cc1ccc(C2C(/C=C3/SC(=S)NC3=O)=C(c3cccs3)Oc3ccccc32)cc1 (centres undefined),"inconclusive: 29.1 µM [inhibitor, single point]",–
O=C(c1ccccc1F)N(Cc1ccccc1)C1CCS(=O)(=O)C1 (centres undefined),"inconclusive: 35.5 µM [activator, single point]",–
O=C1CN(c2ccccc2)C(=S)N1C(=O)c1ccccc1,–,inactive: -20.4% [at 46.1 µM]
Cc1ccc(S(=O)(=O)Nc2cccc(-c3cn4ccsc4n3)c2)cc1,active: 4.47 µM,–
CN1C(=O)c2ccccc2Sc2ccc(NC(=O)COc3ccc(Cl)cc3)cc21,"inconclusive: 7.94 µM [inhibitor, partial curve, poor fit]",–
Cc1ccc2nc(-c3ccc(NC(=O)COC(=O)c4cncc(Br)c4)cc3)sc2c1,"inconclusive: 7.08 µM [inhibitor, partial curve, poor fit]",–
COCCNc1ccc(-c2nc(-c3cccc(C)c3)no2)cc1[N+](=O)[O-],–,inactive: -1.38% [at 46.1 µM]
O=S(=O)(CC(CN1CCCC1)N1CCCC1)c1ccc2ccccc2c1 (centres undefined),active: 10.3 µM,–
CCC(=O)NCCc1nc2cc(NC(=O)c3ccccc3OC)ccc2n1C,–,inactive: -0.729%
COc1ccc(Nc2nc(C)nc3c2oc2ccccc23)cc1,"inconclusive: 35.5 µM [inhibitor, single point]",–
COc1ccc(-c2cn3cccnc3n2)cc1Br,"inconclusive: 15.8 µM [activator, single point]",–
Cc1nn(-c2ccccc2)c2sc(C(=O)N3CCOCC3)cc12,"inconclusive: 35.5 µM [inhibitor, single point]",–
O=C1NC(=S)N(C2CC2)C(=O)/C1=C/c1ccc2c(c1)CCN2CCCCl,"inconclusive: 10.3 µM [inhibitor, single point]",–
CC1(C)CC(=O)C2=C(C1)N(c1ccc(F)cc1)C(=O)C2(NC(=O)c1ccccc1F)C(F)(F)F (centres undefined),–,inactive: 1.39%
CCOc1ccc(CCNC(=O)c2ccc3c(c2)N(Cc2cccc(Cl)c2)C(=O)c2ccccc2S3(=O)=O)cc1OCC,–,inactive: -17.9% [at 46.1 µM]

# Pulled by structure from the list above, 2 records:
Compound,Potency,"activity change, negative = inhibition"
CN1C(=O)c2ccccc2Sc2ccc(NC(=O)COc3ccc(Cl)cc3)cc21,"inconclusive: 7.94 µM [inhibitor, partial curve, poor fit]",–
O=C1NC(=O)/C(=C/c2cccc3ccccc23)S1,"inconclusive: 35.5 µM [activator, single point]",–

# Remaining list, next part

Compound,Potency,"activity change, negative = inhibition"
O=C(NCCc1ccccc1)c1cccc(NC(=O)C2CCC2)c1,"inconclusive: 1.77 µM [activator, full curve, poor fit]",–
CC(c1ccccc1)n1cncc1C(=O)N1CCCC1=O (centres undefined),"inconclusive: 0.0206 µM [activator, full curve, poor fit]",–
O=C(NC(=S)Nc1nc2c(ccc3ccccc32)s1)c1cccs1,–,inactive: 11%
CC1=CC(=O)C(C(C)C)=C/C1=N/OC(=O)c1cccc([N+](=O)[O-])c1,–,inactive: -18.7%
CCN1CCN(c2ccc(S(=O)(=O)N3CCCCC3)cc2NC(=O)c2ccc(C)o2)CC1,"inconclusive: 0.794 µM [activator, single point]",–
CCN(Cc1ccccc1)C(=O)CCS(=O)(=O)c1ccc2c(c1)oc(=O)n2C,"inconclusive: 2.82 µM [activator, full curve]",–
CC(C)(C)c1ccc(C(=O)Nc2ccc([N+](=O)[O-])cn2)cc1,"inconclusive: 6.51 µM [activator, single point]",–
CCOC(=O)c1scc(-c2ccc(C)cc2)c1S(=O)(=O)Nc1ccc(F)c(F)c1,–,inactive: 1.16% [at 46.1 µM]
Nc1c(C(=O)NCCN2CCOCC2)c2nc3ccccc3nc2n1Cc1ccco1,–,inactive: -2.96%
Cc1ccc(CNC(=O)CN2CCCC(C)C2)cc1 (centres undefined),"inconclusive: 32.6 µM [activator, partial curve, poor fit]",–
COc1ccccc1CNC(=O)c1cc2c(=O)n(Cc3cccs3)ccc2nc1C,"inconclusive: 35.5 µM [inhibitor, single point]",–
CC(C)c1nnc(NC(=O)c2nc(S(=O)(=O)Cc3ccccc3)ncc2Cl)s1,"inconclusive: 15.8 µM [inhibitor, partial curve, poor fit] and inconclusive: 31.6 µM [inhibitor, single point]",–
NS(=O)(=O)c1cccc(NC(=O)COc2ncnc3c2cnn3-c2ccccc2)c1,"inconclusive: 1.26 µM [inhibitor, full curve, poor fit]",–
Cc1ccc(-n2c(SCC(=O)N3CCC(C)CC3)nc3c([nH]c4ccccc43)c2=O)cc1,"inconclusive: 35.5 µM [activator, single point]",–
CCOC(=O)C1(CCCc2ccccc2)CCN(Cc2cn(CC)nc2C)CC1,"inconclusive: 20 µM [inhibitor, partial curve, poor fit]",–
CSc1ccc(CCNC(=O)c2ccc3c(c2)nc2n3CCOC2)cc1,"inconclusive: 22.4 µM [activator, single point]",–
COc1cc2cc(c1Cl)N(C)C(=O)CC(OC(=O)C(C)N(C)C(C)=O)C1(C)OC1C(C)C1CC(O)(NC(=O)O1)C(OC)C=CC=C(C)C2 (centres undefined),"inconclusive: 0.141 µM [inhibitor, full curve, poor fit]",–
Cc1ccc(NC(=S)NCCC2=CCCCC2)cc1,–,inactive: 0.98%
C=CCn1c(CCNC(=O)c2cccs2)nnc1SCC(=O)Nc1cccc(F)c1,–,inactive: 2.48%
O=C(NCCc1c[nH]c2ccccc12)C(=O)NCC1OCCN1S(=O)(=O)c1ccc(Cl)cc1 (centres undefined),"inconclusive: 29.1 µM [inhibitor, single point]",–
COc1ccc(CNC(=O)C2CCN(S(=O)(=O)c3cn(C)cn3)CC2)cc1,–,inactive: 14.7% [at 46.1 µM]
Cc1cc(C)c2cc(CN(CCN3CCCC3)C(=O)Nc3ccc(F)cc3)c(=O)[nH]c2c1,"inconclusive: 11.2 µM [inhibitor, partial curve]",–

# From PubChem BioAssay AID540256 (National Center for Advancing Translational Sciences (NCATS), 2011)
